Some of the results follow. Most values lie at the level of the controls, where differences are scatter.

The chains behind the UniProt entries cited, without tags or fusion partners. Where a name states a change or a piece, a line headed by the entry shows the natural chain unless it says otherwise.
UniProt Q8N841: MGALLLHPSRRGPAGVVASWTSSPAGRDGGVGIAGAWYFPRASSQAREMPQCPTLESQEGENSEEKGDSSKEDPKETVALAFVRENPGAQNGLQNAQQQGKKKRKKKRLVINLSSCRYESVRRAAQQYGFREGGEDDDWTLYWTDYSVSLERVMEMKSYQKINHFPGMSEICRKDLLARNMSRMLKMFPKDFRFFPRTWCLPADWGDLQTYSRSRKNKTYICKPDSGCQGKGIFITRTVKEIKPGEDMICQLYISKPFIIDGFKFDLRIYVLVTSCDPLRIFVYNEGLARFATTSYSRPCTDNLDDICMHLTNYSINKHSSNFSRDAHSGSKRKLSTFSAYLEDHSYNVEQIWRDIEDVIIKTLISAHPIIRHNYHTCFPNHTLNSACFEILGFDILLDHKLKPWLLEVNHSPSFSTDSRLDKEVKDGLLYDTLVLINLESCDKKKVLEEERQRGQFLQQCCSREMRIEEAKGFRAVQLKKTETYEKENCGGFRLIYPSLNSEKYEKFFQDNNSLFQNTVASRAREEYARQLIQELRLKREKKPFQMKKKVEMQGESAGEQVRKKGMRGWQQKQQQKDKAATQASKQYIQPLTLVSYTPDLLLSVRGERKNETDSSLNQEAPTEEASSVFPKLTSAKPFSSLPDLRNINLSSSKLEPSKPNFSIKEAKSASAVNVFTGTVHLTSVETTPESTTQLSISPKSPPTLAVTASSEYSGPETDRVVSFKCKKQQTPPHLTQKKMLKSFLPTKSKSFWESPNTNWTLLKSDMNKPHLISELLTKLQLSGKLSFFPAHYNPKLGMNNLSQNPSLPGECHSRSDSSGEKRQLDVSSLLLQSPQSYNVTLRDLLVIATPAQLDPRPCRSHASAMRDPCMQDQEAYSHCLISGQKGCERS
UniProt Q8N5U6: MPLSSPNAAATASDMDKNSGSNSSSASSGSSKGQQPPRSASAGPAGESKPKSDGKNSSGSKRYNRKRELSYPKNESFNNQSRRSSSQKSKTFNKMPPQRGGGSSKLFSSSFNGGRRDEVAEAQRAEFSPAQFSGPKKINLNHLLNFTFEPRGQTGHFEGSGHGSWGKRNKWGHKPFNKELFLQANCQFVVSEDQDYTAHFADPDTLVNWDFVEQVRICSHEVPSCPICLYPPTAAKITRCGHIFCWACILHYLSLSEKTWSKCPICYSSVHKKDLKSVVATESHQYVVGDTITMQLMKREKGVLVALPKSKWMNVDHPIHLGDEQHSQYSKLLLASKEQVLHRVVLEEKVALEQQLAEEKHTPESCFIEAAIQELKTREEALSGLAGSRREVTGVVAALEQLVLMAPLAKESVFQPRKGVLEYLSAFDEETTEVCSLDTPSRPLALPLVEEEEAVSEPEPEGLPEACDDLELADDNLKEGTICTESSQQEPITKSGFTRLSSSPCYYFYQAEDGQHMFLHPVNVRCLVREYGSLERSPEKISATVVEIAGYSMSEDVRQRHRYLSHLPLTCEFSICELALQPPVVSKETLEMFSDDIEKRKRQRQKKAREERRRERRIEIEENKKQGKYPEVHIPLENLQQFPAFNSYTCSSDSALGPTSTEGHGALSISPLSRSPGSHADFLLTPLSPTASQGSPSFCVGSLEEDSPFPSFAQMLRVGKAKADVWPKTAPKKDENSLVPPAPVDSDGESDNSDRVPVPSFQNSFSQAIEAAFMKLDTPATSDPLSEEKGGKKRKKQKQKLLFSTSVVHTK
UniProt Q8NHV4, whole entry: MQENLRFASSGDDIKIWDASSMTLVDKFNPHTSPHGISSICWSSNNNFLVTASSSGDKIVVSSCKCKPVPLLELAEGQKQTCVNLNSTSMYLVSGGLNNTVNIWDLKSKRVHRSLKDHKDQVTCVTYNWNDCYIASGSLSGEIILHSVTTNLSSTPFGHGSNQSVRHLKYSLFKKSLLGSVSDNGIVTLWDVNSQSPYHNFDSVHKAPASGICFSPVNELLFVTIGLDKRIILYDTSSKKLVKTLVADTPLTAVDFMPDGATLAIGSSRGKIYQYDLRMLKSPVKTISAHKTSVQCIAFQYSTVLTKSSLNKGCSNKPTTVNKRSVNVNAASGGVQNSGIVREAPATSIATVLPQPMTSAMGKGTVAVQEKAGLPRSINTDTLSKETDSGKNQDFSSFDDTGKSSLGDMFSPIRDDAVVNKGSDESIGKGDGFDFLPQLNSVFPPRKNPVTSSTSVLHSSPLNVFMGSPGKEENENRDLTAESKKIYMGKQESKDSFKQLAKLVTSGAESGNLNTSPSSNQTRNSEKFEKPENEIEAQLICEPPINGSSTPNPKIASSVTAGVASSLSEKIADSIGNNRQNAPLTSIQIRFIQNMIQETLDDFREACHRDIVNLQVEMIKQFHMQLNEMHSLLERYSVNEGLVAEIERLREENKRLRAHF
UniProt Q8N5H3: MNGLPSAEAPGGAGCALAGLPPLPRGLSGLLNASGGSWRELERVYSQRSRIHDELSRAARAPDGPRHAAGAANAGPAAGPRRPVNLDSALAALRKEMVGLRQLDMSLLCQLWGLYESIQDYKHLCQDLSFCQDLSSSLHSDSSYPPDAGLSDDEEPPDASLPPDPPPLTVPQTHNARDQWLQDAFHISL
UniProt Q8N9L1: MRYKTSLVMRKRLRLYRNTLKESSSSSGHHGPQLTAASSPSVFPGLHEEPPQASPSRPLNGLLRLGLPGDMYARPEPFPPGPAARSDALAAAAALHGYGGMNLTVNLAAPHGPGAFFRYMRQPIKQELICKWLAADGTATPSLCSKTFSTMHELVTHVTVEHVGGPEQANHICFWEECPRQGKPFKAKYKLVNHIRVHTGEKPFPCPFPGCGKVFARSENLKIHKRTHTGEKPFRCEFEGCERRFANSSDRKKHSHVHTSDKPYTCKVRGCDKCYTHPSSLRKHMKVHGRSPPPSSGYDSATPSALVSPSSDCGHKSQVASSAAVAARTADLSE
UniProt Q8NF64: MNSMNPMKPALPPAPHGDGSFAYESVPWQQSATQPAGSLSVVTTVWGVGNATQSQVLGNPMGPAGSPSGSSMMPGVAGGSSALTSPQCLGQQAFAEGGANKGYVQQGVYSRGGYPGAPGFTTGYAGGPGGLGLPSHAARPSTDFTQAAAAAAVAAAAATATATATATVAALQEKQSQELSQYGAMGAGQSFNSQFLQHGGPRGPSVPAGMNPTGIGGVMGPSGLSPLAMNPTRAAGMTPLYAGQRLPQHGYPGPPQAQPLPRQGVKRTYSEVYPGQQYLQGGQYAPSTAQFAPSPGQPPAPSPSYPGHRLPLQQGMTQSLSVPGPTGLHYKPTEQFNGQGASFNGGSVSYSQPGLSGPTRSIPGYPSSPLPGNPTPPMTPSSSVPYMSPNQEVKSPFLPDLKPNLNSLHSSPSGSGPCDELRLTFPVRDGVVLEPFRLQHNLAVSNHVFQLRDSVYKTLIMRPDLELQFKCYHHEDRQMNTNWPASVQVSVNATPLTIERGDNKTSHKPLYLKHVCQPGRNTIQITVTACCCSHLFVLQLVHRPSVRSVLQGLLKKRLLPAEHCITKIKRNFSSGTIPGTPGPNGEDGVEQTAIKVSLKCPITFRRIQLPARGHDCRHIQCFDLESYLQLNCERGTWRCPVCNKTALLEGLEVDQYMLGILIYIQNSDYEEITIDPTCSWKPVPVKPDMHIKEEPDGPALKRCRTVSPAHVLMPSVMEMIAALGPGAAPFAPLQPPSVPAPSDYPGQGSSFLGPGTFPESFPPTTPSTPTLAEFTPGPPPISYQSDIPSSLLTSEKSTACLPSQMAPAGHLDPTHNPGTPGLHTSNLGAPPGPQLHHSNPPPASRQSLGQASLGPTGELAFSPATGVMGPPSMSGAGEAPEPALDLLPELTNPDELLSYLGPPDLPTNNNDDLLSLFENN
UniProt Q8NBM4: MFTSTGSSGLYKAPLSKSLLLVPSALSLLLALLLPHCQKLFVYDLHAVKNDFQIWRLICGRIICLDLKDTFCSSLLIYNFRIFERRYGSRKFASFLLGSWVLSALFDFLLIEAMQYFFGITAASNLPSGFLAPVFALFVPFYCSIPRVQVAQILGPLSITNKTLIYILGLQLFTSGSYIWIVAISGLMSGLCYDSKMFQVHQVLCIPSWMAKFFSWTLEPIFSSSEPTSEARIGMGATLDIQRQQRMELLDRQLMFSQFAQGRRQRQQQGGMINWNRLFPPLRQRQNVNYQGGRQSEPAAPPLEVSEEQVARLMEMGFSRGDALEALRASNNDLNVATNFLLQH
UniProt Q8N9W4: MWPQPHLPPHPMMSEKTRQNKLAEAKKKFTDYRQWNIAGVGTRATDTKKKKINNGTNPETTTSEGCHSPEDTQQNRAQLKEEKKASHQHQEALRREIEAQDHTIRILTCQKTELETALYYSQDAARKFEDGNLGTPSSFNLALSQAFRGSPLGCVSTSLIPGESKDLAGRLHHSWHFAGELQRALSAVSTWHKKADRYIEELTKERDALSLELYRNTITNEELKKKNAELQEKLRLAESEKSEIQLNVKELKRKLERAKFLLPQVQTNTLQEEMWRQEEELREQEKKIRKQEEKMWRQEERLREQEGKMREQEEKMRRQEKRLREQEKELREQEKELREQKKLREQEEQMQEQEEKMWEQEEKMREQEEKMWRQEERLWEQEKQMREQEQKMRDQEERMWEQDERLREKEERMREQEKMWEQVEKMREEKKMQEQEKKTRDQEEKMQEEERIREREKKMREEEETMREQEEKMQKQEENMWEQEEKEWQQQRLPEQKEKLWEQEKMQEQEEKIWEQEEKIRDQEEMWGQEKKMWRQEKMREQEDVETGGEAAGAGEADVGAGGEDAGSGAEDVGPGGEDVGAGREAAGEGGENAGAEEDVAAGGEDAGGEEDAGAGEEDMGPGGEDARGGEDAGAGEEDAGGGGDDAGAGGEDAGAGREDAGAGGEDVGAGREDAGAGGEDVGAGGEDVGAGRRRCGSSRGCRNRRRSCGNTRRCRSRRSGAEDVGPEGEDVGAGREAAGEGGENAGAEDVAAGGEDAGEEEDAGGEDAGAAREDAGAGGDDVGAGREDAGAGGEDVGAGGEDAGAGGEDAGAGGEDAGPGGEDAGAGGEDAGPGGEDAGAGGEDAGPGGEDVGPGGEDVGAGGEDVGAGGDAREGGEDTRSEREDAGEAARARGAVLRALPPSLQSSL
UniProt Q8NAP3: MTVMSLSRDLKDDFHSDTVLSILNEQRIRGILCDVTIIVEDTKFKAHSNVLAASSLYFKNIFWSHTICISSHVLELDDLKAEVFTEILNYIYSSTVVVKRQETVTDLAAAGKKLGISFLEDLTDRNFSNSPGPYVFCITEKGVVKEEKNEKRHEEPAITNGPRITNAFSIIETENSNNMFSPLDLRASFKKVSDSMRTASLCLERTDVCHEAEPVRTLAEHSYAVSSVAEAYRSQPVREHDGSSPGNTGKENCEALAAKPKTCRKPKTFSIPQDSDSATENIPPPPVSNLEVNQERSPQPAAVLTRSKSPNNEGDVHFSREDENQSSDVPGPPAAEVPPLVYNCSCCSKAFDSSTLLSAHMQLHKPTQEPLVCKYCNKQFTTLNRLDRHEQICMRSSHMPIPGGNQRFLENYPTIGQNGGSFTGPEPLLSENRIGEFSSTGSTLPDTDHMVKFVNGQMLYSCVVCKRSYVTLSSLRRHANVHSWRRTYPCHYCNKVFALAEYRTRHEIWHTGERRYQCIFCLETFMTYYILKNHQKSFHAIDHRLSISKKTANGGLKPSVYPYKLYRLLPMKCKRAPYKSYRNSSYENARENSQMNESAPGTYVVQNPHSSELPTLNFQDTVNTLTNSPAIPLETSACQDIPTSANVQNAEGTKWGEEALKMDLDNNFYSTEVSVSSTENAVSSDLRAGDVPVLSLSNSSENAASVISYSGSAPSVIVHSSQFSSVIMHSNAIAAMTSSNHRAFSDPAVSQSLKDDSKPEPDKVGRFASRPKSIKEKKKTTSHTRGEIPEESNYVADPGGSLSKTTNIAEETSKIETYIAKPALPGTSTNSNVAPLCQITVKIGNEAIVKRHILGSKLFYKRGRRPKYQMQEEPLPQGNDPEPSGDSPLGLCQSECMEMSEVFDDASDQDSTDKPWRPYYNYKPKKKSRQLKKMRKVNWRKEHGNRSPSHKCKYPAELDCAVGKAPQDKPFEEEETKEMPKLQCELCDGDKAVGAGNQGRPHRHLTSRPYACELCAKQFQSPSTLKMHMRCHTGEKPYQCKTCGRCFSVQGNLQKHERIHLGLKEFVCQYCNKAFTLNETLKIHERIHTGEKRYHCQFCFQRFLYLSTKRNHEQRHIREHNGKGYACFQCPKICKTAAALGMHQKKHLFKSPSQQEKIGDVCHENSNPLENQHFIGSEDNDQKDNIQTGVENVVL
UniProt Q8NFX7: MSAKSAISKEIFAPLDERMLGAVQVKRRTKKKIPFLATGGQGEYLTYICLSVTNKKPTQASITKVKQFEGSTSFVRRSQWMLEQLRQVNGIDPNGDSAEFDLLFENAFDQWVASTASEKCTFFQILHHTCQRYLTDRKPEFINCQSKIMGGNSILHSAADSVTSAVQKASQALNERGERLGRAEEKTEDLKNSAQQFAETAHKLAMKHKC

Compound in this experiment: Cc1nc(Nc2ncc(C(=O)Nc3c(C)cccc3Cl)s2)cc(N2CCN(CCO)CC2)n1 [dasatinib]
The experiment is described as follows: log2 fold change of tryptic peptide abundance, ligand vs vehicle (limited proteolysis) (log2 ratio); higher = more trypsin-susceptible (destabilized). The conditions noted are these: ligand concentration: 5 uM; sample: K562 cleared lysate.
For the target “UniProt Q8NG31 (peptide sequence: QNTAFQDLSINSADKIHITR, peptide start residue: 394)”, the log2 fold change amounted to 0.149. “UniProt Q8N5G2 (peptide sequence: KHNLGINNNNILQPVDSK, peptide start residue: 265)”: the log2 fold change is 0.388. For “PHETA1 (peptide sequence: ELEQQLAAVR, peptide start residue: 122) (UniProt Q8N4B1)”, the log2 fold change was determined as 0.232. For “UniProt Q8N841 (peptide sequence: LSFFPAHYNPK, peptide start residue: 738)”, the log2 fold change is -0.0884. “RNF10 (peptide sequence: NESFNNQSR, peptide start residue: 74) (UniProt Q8N5U6)”: the log2 fold change was -0.441.

Turning to “UniProt Q8N8Z8 (peptide sequence: THTGEKPYECKQCGK, peptide start residue: 272)”, the log2 fold change is 0.407.

As to “LSM14A (peptide sequence: VSRPENEQLR, peptide start residue: 244) (UniProt Q8ND56)”, the log2 fold change was -0.149. “SIDT2 (peptide sequence: ACPESGHPR, peptide start residue: 334) (UniProt Q8NBJ9)”: the log2 fold change was found to be 0.184. On to “PAF1 (peptide sequence: FITYPFDQNR, peptide start residue: 48) (UniProt Q8N7H5)”, for which the log2 fold change was -0.308. In the case of “PLCD3 (peptide sequence: APSQHIFFVQHIEAVR, peptide start residue: 103) (UniProt Q8N3E9)”, the log2 fold change was -0.426.

With “MTMR14 (peptide sequence: DGGFTLEDICMLRR, peptide start residue: 420) (UniProt Q8NCE2)”, the log2 fold change was -0.176. As for “RBM15B (peptide sequence: NLFIGNLDHSVSEVELR, peptide start residue: 338) (UniProt Q8NDT2)”, the log2 fold change is -0.503. “NEDD1 (peptide sequence: DLTAESKK, peptide start residue: 478) (UniProt Q8NHV4)”: the log2 fold change was -0.421. Then “SRFBP1 (peptide sequence: QQLQLPLHPSWEASR, peptide start residue: 394) (UniProt Q8NEF9)”, with 0.111; and “ADGB (peptide sequence: EILPEFK, peptide start residue: 293) (UniProt Q8N7X0)”, with 0.0344; and “UniProt Q8N5H3 (peptide sequence: HAAGAANAGPAAGPR, peptide start residue: 67)”, with -0.43. Take “UniProt Q8NFJ9 (peptide sequence: GGGLIIK, peptide start residue: 394)”: the log2 fold change was -0.103. Turning to “ARID1B (peptide sequence: IERGEEPPPEVFSTGDTK, peptide start residue: 1226) (UniProt Q8NFD5)”, the log2 fold change was 0.432. Then “ZC3H8 (peptide sequence: IKLECEQIPKK, peptide start residue: 42) (UniProt Q8N5P1)”, with -0.701; and “UniProt Q8N9L1 (peptide sequence: THTGEKPFR, peptide start residue: 852)”, with 0.0759. As for “ZCCHC9 (peptide sequence: RPLPATSWEDMKK, peptide start residue: 14) (UniProt Q8N567)”, the log2 fold change turned out to be 0.433.

For “CMAS (peptide sequence: EVTEPLNLNPAK, peptide start residue: 189) (UniProt Q8NFW8)”, the log2 fold change is -0.0535.

Turning to “ZMIZ2 (peptide sequence: EEPDGPALKR, peptide start residue: 693) (UniProt Q8NF64)”, the log2 fold change is 0.302.

On to “MEIOB (peptide sequence: IINVLAAVK, peptide start residue: 167) (UniProt Q8N635)”, for which the log2 fold change is -0.132.

On to “C2orf69 (peptide sequence: SSPSHTTNGCQGEK, peptide start residue: 221) (UniProt Q8N8R5)”, for which the log2 fold change turned out to be 0.32. For “NUP43 (peptide sequence: TIDNADSSTLHAVTFLR, peptide start residue: 166) (UniProt Q8NFH3)” the value was -0.141; for “STAG2 (peptide sequence: YVGWTMHDK, peptide start residue: 331) (UniProt Q8N3U4)”, -0.329. As to “UniProt Q8ND90 (peptide sequence: LEQVIAGANHSGAIR, peptide start residue: 291)”, the log2 fold change was -0.162.

Take “UBAC2 (peptide sequence: QLMFSQFAQGR, peptide start residue: 253) (UniProt Q8NBM4)”: the log2 fold change was 0.121.

As for “UniProt Q8N9W4 (peptide sequence: ELREQEK, peptide start residue: 280)”, the log2 fold change was -0.0265. Take “UniProt Q8NAP3 (peptide sequence: TLAEHSYAVSSVAEAYR, peptide start residue: 217)”: the log2 fold change came to 0.371. Consider “MICALL1 (peptide sequence: HRPDLLDFDSLSKDNVFENNR, peptide start residue: 44) (UniProt Q8N3F8)”, for which the log2 fold change is -0.47. Turning to “CHCHD4 (peptide sequence: SYCRQEGK, peptide start residue: 2) (UniProt Q8N4Q1)”, the log2 fold change was determined as 0.316. Then “STXBP6 (peptide sequence: NSAQQFAETAHK, peptide start residue: 192) (UniProt Q8NFX7)”, with -0.17; and “UniProt Q8N7N1 (peptide sequence: SFPWQSLEAK, peptide start residue: 28)”, with -0.227; and “GUF1 (peptide sequence: NMIFIDQNR, peptide start residue: 501) (UniProt Q8N442)”, with 0.331. On to “UniProt Q8NDZ2 (peptide sequence: TPQGGLYNRPCLHR, peptide start residue: 420)”, for which the log2 fold change was -0.547.

With “CAMKK1 (peptide sequence: MLDKNPETR, peptide start residue: 389) (UniProt Q8N5S9)”, the log2 fold change is -0.767.

(Values after the supplement of paper PMC12819154, “High-throughput peptide-centric local stability assay extends protein–ligand identification to membrane proteins, tissues and bacteria” (Nature Structural & Molecular Biology, 2025).)
